Reference: patent US20030086972A1, “Hydrogel-driven drug dosage form” (priority 2000, published 2003)
In brackets after ≈: the same amount, converted by molar mass.

Assay: physchem
Settings: pH 6.5, aqueous buffer

Compound: COC(=O)C1=C(C)NC(C)=C(C(=O)OC)C1c1ccccc1[N+](=O)[O-] [Drug 4, nifedipine]
- solubility: 0.026 mg/mL (≈ 75.1 µM)
